# From article PMC12431657, “Discovery and mechanistic insights of dibenzoylmethane as a broad spectrum inhibitor of coronavirus” (PLOS Pathogens, 2025)
# Counter-ions that a name gives are not always drawn. Like-named read-outs stand apart in the source and are kept apart here. Out of some 3,300 compounds screened, about 60 (2%) showed an effect of 50% or more. The list shows a part of the results.
# System: HCoV-OC43
# Parameters: species or system RD; HTS, protection from HCoV-OC43 induced cell death, luminescent cell viability (CellCounting-Lite 2.0), inhibition rate
# Conditions: 24 h post infection, 1 h compound pre-incubation, 10 µM, inhibitor
Structure (SMILES),OC43 Inhibition rate,"OC43 Inhibition rate (OC43 Inhibition rate, 24 h)"
C[C@H]1CC[C@@]2(OC1)O[C@H]1C[C@H]3[C@@H]4CC[C@@H]5C[C@@H](O)CC[C@]5(C)[C@H]4CC[C@]3(C)[C@H]1[C@@H]2C [Sarsasapogenin],-0.2%,–
"Cc1cncc(C)n1 [2,6-Dimethylpyrazine]",2.1%,–
CC(=O)O[C@H]1[C@H](O[C@H]2CC[C@]34C[C@]35CC[C@]3(C)[C@@H]([C@@]6(C)CC[C@@H](C(C)(C)O)O6)[C@@H](O)C[C@@]3(C)[C@@H]5C[C@H](O[C@@H]3O[C@H](CO)[C@@H](O)[C@H](O)[C@H]3O)[C@H]4C2(C)C)OC[C@@H](OC(C)=O)[C@@H]1O [Isoastragaloside I],4.3%,–
O=C(/C=C/c1ccc(O)c(O)c1)O[C@H](Cc1ccc(O)c(O)c1)C(=O)O [Rosmarinic acid],-3.5%,–
"COc1cc(C[C@@H](CO[C@@H]2O[C@H](CO)[C@@H](O)[C@H](O)[C@H]2O)[C@H](CO[C@@H]2O[C@H](CO)[C@@H](O)[C@H](O)[C@H]2O)Cc2ccc(O)c(OC)c2)ccc1O [(R,R)-Secoisolariciresinol diglucoside]",–,-0.5%
COc1ccc(-c2cc(=O)c3c(O)c(OC)c(O)cc3o2)cc1OC [Eupatilin],4.5%,–
"O=C(O)/C=C/c1ccc2c(c1)OCO2 [3,4-Methylenedioxycinnamic acid]",–,3.6%
O=c1cc(-c2ccc(O)c(O)c2)oc2cc(O[C@@H]3O[C@H](CO)[C@@H](O)[C@H](O)[C@H]3O)c(O)c(O)c12 [6-Hydroxyluteolin 7-glucoside],-0.7%,–
C=C[C@](C)(O)CC[C@@H]1[C@@]2(C)CCCC(C)(C)[C@@H]2CC[C@@]1(C)O [Sclareol],9.7%,–
O=C(O)[C@@H]1[C@H]2C[C@H]3c4[nH]c5ccccc5c4CCN3C[C@@H]2CC[C@@H]1O [Yohimbic acid],-0.7%,–
CC(O)(CCO)CC(=O)O (stereo not drawn) [Mevalonic acid (lithium salt)],-0.5%,–
CC=C1[C@@H]2C=C(C)C[C@@]1(N)c1ccc(=O)[nH]c1C2 (racemic) [(±)-Huperzine A],1.6%,–
COc1c(/C=C/C(=O)c2ccc(O)cc2)ccc(O)c1CC=C(C)C [Licochalcone C],39%,–
COc1cc(CNC(=O)CCCC/C=C/C(C)C)ccc1O [Capsaicin],10.2%,–
CCC1(c2ccc(O)cc2)NC(=O)N(C)C1=O (stereo not drawn) [4-Hydroxymephenytoin],-0.5%,–
CCCOC(=O)c1ccc(O)cc1 [Propylparaben],-1.1%,–
Oc1cc(O)c2cc(O)c(-c3ccc(O)c(O)c3)[o+]c2c1 [Cyanidin (Chloride)],-0.5%,–
O=C1c2ccccc2C(=O)c2c(O)c(O)cc(O)c21 [Purpurin],-0.1%,–
CC(=O)O[C@@]1(C)C[C@@H](O)[C@]2(O)C=CO[C@@H](O[C@@H]3O[C@H](CO)[C@@H](O)[C@H](O)[C@H]3O)[C@@H]21 [8-O-Acetylharpagide],0%,–
COc1cc2ccc(=O)oc2c(O)c1O [Fraxetin],-0.3%,–

Structure (SMILES),OC43 Inhibition rate,"OC43 Inhibition rate (OC43 Inhibition rate, 24 h)"
Nc1ccccc1S(=O)(=O)O [2-Aminobenzenesulfonic acid],0.5%,–
O=C(O)C(O)C(O)C(=O)O (stereo not drawn) [Choline (bitartrate)],–,-1.3%
C=C[C@](C)(O)CC[C@H]1C(=C)CC[C@H]2C(C)(C)CCC[C@]12C [Manool],0.7%,–
Cc1ccc(O)c(O)c1 [4-Methylcatechol],-0.9%,–
C[C@@H]1O[C@@H](Oc2cc(O)c3c(=O)c(O)c(-c4ccc(O)cc4)oc3c2O)[C@H](O)[C@H](O)[C@H]1O [Rhodionin],0.2%,–
CC(=O)O[C@@]12CO[C@@H]1C[C@H](O)[C@@]1(C)C(=O)[C@H](O)C3=C(C)[C@@H](OC(=O)[C@H](O)[C@@H](NC(=O)c4ccccc4)c4ccccc4)C[C@@](O)([C@@H](OC(=O)c4ccccc4)[C@H]21)C3(C)C [10-Deacetyltaxol],0.2%,–
CC(C)=CCC[C@H](C)CC=O [(S)-(-)-Citronellal],-0.8%,–
COc1cc2c(cc1OC)[C@@H](Cc1ccc(O)c(Oc3cc4c(cc3OC)CCN(C)[C@@H]4Cc3ccc(O)cc3)c1)N(C)CC2 [Liensinine (perchlorate)],–,0.4%
C=C1C[C@@]23CC[C@H]4[C@@](C)(CCC[C@@]4(C)C(=O)O[C@@H]4O[C@H](CO)[C@@H](O)[C@H](O)[C@H]4O)[C@@H]2CC[C@]1(O[C@@H]1O[C@H](C)[C@@H](O)[C@H](O)[C@@H]1O[C@@H]1O[C@H](CO)[C@@H](O)[C@H](O[C@@H]2O[C@H](CO)[C@@H](O)[C@H](O)[C@H]2O)[C@H]1O)C3 [Rebaudioside C],-0.6%,–
NC[C@H](O)c1ccc(O)c(O)c1 [Norepinephrine (hydrochloride)],1.5%,–
O[C@H]1[C@H](O)[C@@H](O)CN2CC[C@H](O)[C@H]12 [Castanospermine],0.4%,–
OC[C@@H](O)[C@@H](O[C@H]1O[C@H](CO)[C@@H](O)[C@H](O)[C@H]1O)[C@H](O)[C@@H](O)CO [Maltitol],5.9%,–
CCC1=C[C@@H]2CN3CCc4c([nH]c5ccccc45)[C@@](C(=O)OC)(C2)[C@@H]13 [Catharanthine],23.2%,–
"COc1ccc(C(C)=O)c(O)c1O [2,3-Dihydroxy-4-methoxyacetophenone]",-1.2%,–
O=c1c(O[C@@H]2O[C@H](CO)[C@@H](O)[C@H](O)[C@H]2O)c(-c2ccc(O)c(O)c2)oc2cc(O)cc(O)c12 [Isoquercetin],–,-1.3%
O=c1c(O)c(-c2ccc(O)cc2)oc2cc(O)cc(O)c12 [Kaempferol],-0.2%,–
COc1cc(C=O)cc(OC)c1O [Syringaldehyde],0%,–
COc1cccc(C(=O)O)c1 [3-Methoxybenzoic acid],-0.1%,–
C[C@@H]1O[C@@H](O[C@H]2CC[C@]3(C=O)[C@H]4CC[C@]5(C)[C@@H](C6=CC(=O)OC6)CC[C@]5(O)[C@@H]4CC[C@]3(O)C2)[C@H](O)[C@H](O)[C@H]1O [Convallatoxin],3.2%,–

# Two of the compounds above, with bars between the fields:
Structure (SMILES) | OC43 Inhibition rate | OC43 Inhibition rate (OC43 Inhibition rate, 24 h)
COc1cc(CNC(=O)CCCC/C=C/C(C)C)ccc1O [Capsaicin] | 10.2% | –
CCC1(c2ccc(O)cc2)NC(=O)N(C)C1=O (stereo not drawn) [4-Hydroxymephenytoin] | -0.5% | –
